Test results: PubChem BioAssay AID212 (DTP/NCI, 2004)
The list does not hold the whole screen: it gathers tests that were run many times, whatever their T/C, doses with no T/C, and many T/C values between a quarter and a half above the control. Other doses and runs of a compound stand elsewhere. T/C gives the treated animals as a percentage of the vehicle group. Schedules are NCI's codes, read here as Q, the interval in days (D) or hours (H), X, the number of doses. Some entries give survivors of the animals treated and no T/C: the source files T/C as zero there, which appears to mark a toxic dose or a test without result, not a measured value. Counts of survivors are from the toxicity check (mostly the fifth day) where no day follows; animals may have died later. Some structures stand for samples that the source files as different forms (salt, stereo form or complex); doses refer to the form tested. Where survival is the endpoint, this PubChem deposit counts one and a half times the control or more as active, and values a quarter to a half above the control carry no call in these data; other NCI protocols may use other cut-offs. Some T/C values carry the count of animals alive at the toxicity check (mostly the fifth day); where none is given, no animal had died by that day.

System: BDF1 mice, colon carcinoma 38 sc, T/C %
Assay: NCI In Vivo Anticancer Drug Screen. Data for tumor model Colon Carcinoma 38 (subcutaneous) in B6D2F1 (BDF1) mice
Outline: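 Transplantable tumor in mice; compound-treated vs vehicle-dosed controls. Measured survival or tumor size; value = T ÷ C.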

[1] = T/C endpoint: median tumor weight (est.), dose: 50.0 mg/kg/injection, schedule: Q07DX002 (ip), vehicle: saline with Tween-80, evaluated on day 20, higher T/C = larger tumour

COc1cc(NCc2ccc3nc(N)nc(N)c3c2C)cc(OC)c1OC
T/C (T/C endpoint: median survival time, dose: 2.0 mg/kg/injection, schedule: Q04HX021 (ip), vehicle: sodium bicarbonate, higher T/C = longer survival): 140 % of control | T/C (T/C endpoint: median survival time, dose: 3.2 mg/kg/injection, schedule: Q04HX021 (ip), vehicle: sodium bicarbonate, higher T/C = longer survival): 140 % of control | T/C (T/C endpoint: median survival time, dose: 13.3 mg/kg/injection, schedule: Q06HX012 (oral), vehicle: sodium bicarbonate, higher T/C = longer survival): 132 % of control [9 of 10 alive on day 70] | T/C (T/C endpoint: median survival time, dose: 13.3 mg/kg/injection, schedule: Q06HX014 (ip), vehicle: sodium bicarbonate, higher T/C = longer survival): 127 % of control [8 of 10 alive on day 70] | survivor count (T/C endpoint: median survival time, dose: 13.5 mg/kg/injection, schedule: Q04HX021 (ip), vehicle: sodium bicarbonate, higher T/C = longer survival): 4 of 10 on day 59 | survivor count (T/C endpoint: median survival time, dose: 20.0 mg/kg/injection, schedule: Q06HX014 (ip), vehicle: sodium bicarbonate, higher T/C = longer survival): 5 of 10 on day 70 | survivor count (T/C endpoint: median survival time, dose: 30.0 mg/kg/injection, schedule: Q06HX012 (oral), vehicle: sodium bicarbonate, higher T/C = longer survival): 1 of 10 on day 70 | survivor count (T/C endpoint: median survival time, dose: 30.0 mg/kg/injection, schedule: Q06HX014 (ip), vehicle: sodium bicarbonate, higher T/C = longer survival): 0 of 5 on day 70 | survivor count (T/C endpoint: median survival time, dose: 45.0 mg/kg/injection, schedule: Q06HX012 (oral), vehicle: sodium bicarbonate, higher T/C = longer survival): 2 of 5 on day 70 | survivor count (T/C endpoint: median survival time, dose: 100.0 mg/kg/injection, schedule: Q07DX002 (ip), vehicle: sodium bicarbonate, higher T/C = longer survival): 6 of 10 on day 70 | survivor count (T/C endpoint: median survival time, dose: 150.0 mg/kg/injection, schedule: Q07DX002 (ip), vehicle: sodium bicarbonate, higher T/C = longer survival): 2 of 9 on day 70 | survivor count (T/C endpoint: median survival time, dose: 225.0 mg/kg/injection, schedule: Q07DX002 (ip), vehicle: sodium bicarbonate, higher T/C = longer survival): 0 of 10 on day 70 | survivor count (T/C endpoint: median survival time, dose: 335.0 mg/kg/injection, schedule: Q07DX002 (ip), vehicle: sodium bicarbonate, higher T/C = longer survival): 0 of 5 on day 70 | survivor count (T/C endpoint: median tumor weight (est.), dose: 148.0 mg/kg/injection, schedule: Q07DX002 (ip), vehicle: water, higher T/C = larger tumour): 4 of 10 on day 20 | survivor count (T/C endpoint: median tumor weight (est.), dose: 157.0 mg/kg/injection, schedule: Q07DX002 (ip), vehicle: water, higher T/C = larger tumour): 0 of 10 on day 20 | survivor count (T/C endpoint: median tumor weight (est.), dose: 180.0 mg/kg/injection, schedule: Q07DX002 (ip), vehicle: water, higher T/C = larger tumour): 5 of 10 on day 20 | survivor count (T/C endpoint: median tumor weight (est.), dose: 200.0 mg/kg/injection, schedule: Q07DX002 (ip), vehicle: water, higher T/C = larger tumour): 5 of 10 on day 20 | survivor count (T/C endpoint: median tumor weight (est.), dose: 222.0 mg/kg/injection, schedule: Q07DX002 (ip), vehicle: water, higher T/C = larger tumour): 0 of 10 on day 20 | survivor count (T/C endpoint: median tumor weight (est.), dose: 236.0 mg/kg/injection, schedule: Q07DX002 (ip), vehicle: water, higher T/C = larger tumour): 0 of 10 on day 20 | survivor count (T/C endpoint: median tumor weight (est.), dose: 270.0 mg/kg/injection, schedule: Q07DX002 (ip), vehicle: water, higher T/C = larger tumour): 0 of 10 on day 20 | survivor count (T/C endpoint: median tumor weight (est.), dose: 334.0 mg/kg/injection, schedule: Q07DX002 (ip), vehicle: water, higher T/C = larger tumour): 0 of 10 on day 20 | survivor count (T/C endpoint: median tumor weight (est.), dose: 354.0 mg/kg/injection, schedule: Q07DX002 (ip), vehicle: water, higher T/C = larger tumour): 0 of 10 on day 20 | survivor count (T/C endpoint: median tumor weight (est.), dose: 400.0 mg/kg/injection, schedule: Q07DX002 (ip), vehicle: water, higher T/C = larger tumour): 0 of 5 on day 20 | survivor count (T/C endpoint: median tumor weight (est.), dose: 405.0 mg/kg/injection, schedule: Q07DX002 (ip), vehicle: water, higher T/C = larger tumour): 0 of 10 on day 20 | survivor count (T/C endpoint: median tumor weight (est.), dose: 501.0 mg/kg/injection, schedule: Q07DX002 (ip), vehicle: water, higher T/C = larger tumour): 0 of 10 on day 20 | survivor count (T/C endpoint: median tumor weight (est.), dose: 531.0 mg/kg/injection, schedule: Q07DX002 (ip), vehicle: water, higher T/C = larger tumour): 0 of 10 on day 20

O=C1OCC2C(=O)OCC12 (stereo not given)
T/C (T/C endpoint: median tumor weight (est.), dose: 12.5 mg/kg/injection, schedule: Q07DX002 (ip), vehicle: saline with Tween-80, evaluated on day 20, higher T/C = larger tumour): 133 % of control | T/C [1]: 140 % of control

O=C(N/N=C\c1cc(Br)cc(Br)c1O)N/N=C/c1cc(Br)cc(Br)c1O
T/C (T/C endpoint: median tumor weight (est.), dose: 25.0 mg/kg/injection, schedule: Q07DX002 (ip), vehicle: saline with Tween-80, evaluated on day 20, higher T/C = larger tumour): 146 % of control | T/C [1]: 131 % of control
